Like-named read-outs stand apart in the source and are kept apart here. No constants are given. Whether binding was seen depends on the method and setting. Binding seen in cells or lysates may run through a third protein. Some entries that bind do so weakly or less than the wild type. Where a sequence is shown, tags or fusion partners need not be part of it.
How the values were obtained:
HA-SFPQ (human) [1] = target: T1, HA-SFPQ (human) (UniProt P23246); test: co-IP
T1 sequence: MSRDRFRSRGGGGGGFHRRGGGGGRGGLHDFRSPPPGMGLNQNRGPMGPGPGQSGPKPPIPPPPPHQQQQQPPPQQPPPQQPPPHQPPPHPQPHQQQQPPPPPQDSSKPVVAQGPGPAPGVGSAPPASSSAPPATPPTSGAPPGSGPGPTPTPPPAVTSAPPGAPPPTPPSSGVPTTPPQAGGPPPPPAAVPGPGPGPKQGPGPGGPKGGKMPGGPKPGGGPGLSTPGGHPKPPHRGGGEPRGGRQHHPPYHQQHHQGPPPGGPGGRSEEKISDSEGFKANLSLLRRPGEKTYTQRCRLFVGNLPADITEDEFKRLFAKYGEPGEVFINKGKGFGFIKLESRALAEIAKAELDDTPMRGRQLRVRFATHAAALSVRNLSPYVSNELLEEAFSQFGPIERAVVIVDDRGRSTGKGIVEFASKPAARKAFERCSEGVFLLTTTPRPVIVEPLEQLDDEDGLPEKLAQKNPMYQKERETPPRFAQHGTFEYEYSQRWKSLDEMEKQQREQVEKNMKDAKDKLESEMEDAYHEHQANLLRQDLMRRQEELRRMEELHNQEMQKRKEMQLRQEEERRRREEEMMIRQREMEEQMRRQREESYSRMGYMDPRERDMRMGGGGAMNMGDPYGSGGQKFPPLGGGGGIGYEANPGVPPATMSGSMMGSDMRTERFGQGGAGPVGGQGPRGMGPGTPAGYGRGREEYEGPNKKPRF

Chains of the proteins cited; added tags and fusions are not shown.
UniProt P33175, whole entry: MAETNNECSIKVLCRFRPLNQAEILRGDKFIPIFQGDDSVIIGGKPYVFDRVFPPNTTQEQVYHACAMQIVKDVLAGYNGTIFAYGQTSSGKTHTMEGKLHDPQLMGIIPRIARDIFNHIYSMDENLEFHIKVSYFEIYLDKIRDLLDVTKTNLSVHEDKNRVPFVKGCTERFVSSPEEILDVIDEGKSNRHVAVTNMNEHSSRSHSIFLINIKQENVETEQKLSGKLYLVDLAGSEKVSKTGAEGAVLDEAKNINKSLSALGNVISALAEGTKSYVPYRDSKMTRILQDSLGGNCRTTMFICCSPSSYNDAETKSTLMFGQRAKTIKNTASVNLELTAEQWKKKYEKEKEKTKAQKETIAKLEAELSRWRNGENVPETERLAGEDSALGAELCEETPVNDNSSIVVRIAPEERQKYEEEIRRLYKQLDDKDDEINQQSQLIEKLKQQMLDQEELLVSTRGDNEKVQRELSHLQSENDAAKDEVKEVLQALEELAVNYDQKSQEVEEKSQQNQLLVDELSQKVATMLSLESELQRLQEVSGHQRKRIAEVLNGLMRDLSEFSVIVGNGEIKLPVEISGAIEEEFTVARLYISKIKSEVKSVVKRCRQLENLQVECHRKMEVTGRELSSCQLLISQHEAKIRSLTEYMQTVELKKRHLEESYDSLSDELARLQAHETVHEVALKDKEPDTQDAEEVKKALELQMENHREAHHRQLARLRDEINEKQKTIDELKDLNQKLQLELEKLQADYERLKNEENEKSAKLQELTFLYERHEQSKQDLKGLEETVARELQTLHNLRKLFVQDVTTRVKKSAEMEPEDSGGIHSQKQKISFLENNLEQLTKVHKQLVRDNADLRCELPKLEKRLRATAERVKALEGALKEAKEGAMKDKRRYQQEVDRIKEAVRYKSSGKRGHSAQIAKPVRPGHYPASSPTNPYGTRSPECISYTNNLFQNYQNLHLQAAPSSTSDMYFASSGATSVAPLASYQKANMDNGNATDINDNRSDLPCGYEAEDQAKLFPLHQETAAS

HA-SFPQ (human) [2] = target: T1, HA-SFPQ (human); test: co-IP; remark: listed apart in the source

FLAG-KIF5A WT (from UniProt P33175 1-1027)
binding (HA-SFPQ (human) [1]): binds | binding (HA-SFPQ (human) [2]): binds
